How the values were obtained:
[1] = biological target: Lys-D-Ala-D-Ala peptide fused to T4 lysozyme wt* L164A (Enterobacteria phage T4, UniProt P00720, C54T/C97A/L164A); assay: biochemical; format: binding
[2] = biological target: Lys-D-Ala-D-Ala peptide fused to ubiquitin1–75 (Homo sapiens, UniProt P0CG47); assay: SPR binding to ubiquitin carrier protein-peptide fusion

CN[C@H](CC(C)C)C(=O)N[C@H]1C(=O)N[C@@H](CC(N)=O)C(=O)N[C@H]2C(=O)N[C@H]3C(=O)N[C@H](C(=O)N[C@H](C(=O)O)c4cc(O)cc(O)c4-c4cc3ccc4O)[C@H](O)c3ccc(c(Cl)c3)Oc3cc2cc(c3O[C@@H]2O[C@H](CO)[C@@H](O)[C@H](O)[C@H]2O[C@H]2C[C@](C)(N)[C@H](O)[C@H](C)O2)Oc2ccc(cc2Cl)[C@H]1O [Vancomycin]
Kd [1]: 3.6 ± 0.7 µM | Kd [2]: 3.6 ± 0.2 µM

— article PMC3304006 (Journal of the American Chemical Society, 2012)
